Earlier results in patent US10583106B2, “Method of treating cancer by oral administration of acetate composition comprising magnesium acetate, calcium acetate or ethylacetate” (priority 2015, dated 2020).
For at least one compound, name, drawing or mass did not settle the structure. Some compounds share one wording; it may come from a single statement.

How the values were obtained:
MeCP2^tm1.1Bird/+ mice = settings: 270 day experiment; versus 30% mortality for MeCP2-null controls; cited from earlier work
histone acetylation = settings: known histone acetylation activity, Y or N; cited from earlier work
Non-Hodgkin's Lymphoma = settings: human, in vivo, 10 mg/kg; cited from earlier work
[1] = test system: GBM-SCs [glioblastoma multiforme stem cells]; settings: cited from earlier work
GBM tumors = settings: cited from earlier work
GST1Z enzyme = molecular target: T1, GST1Z enzyme (Homo sapiens, UniProt O43708); settings: cited from earlier work
T1 sequence (O43708 1-216): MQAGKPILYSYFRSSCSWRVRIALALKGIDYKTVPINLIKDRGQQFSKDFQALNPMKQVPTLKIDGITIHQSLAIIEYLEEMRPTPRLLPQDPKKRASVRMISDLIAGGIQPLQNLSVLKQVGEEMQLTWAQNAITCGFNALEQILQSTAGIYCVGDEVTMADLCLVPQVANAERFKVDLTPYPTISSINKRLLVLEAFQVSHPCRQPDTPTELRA

HDAC = settings: Ookubo, 2013; cited from earlier work
[2] = post-DCA treatment tumors from patients 2 to 4

CC(C)n1c(/C=C/C(O)CC(O)CC(=O)O)c(-c2ccc(F)cc2)c2ccccc21 (centres unmarked) [Fluvastatin]
longevity (deaths) (MeCP2^tm1.1Bird/+ mice): no deaths

CC(=O)O[C@H](CC(=O)[O-])C[N+](C)(C)C [Acetyl-L-Carnitine]
↑ HAc ? (histone acetylation): Y

O=C(O)C(Cl)Cl [DCA, dichloroacetate]
PET scan (Non-Hodgkin's Lymphoma): complete remission
apoptosis in GBM-SC in vitro and in GBM primary cell lines ([1]; Michelakis, 2010): induced apoptosis
proportion of cells with GBM-SC markers ([1]; differentiation in the presence of DCA (0.5 mM), ˜10% without): ~5%
TP53 (nuclear translocation) (GBM tumors; [2]): increased activity
p21 (downstream target of TP53) (GBM tumors; [2]): increased activity and abundance
GBM-SC apoptosis in vivo (GBM tumors; post-DCA treatment tumors): took place
activity of the GST1Z enzyme (GST1Z enzyme): inhibits

Cc1cc2c(s1)Nc1ccccc1N=C2N1CCN(C)CC1 [olanzapine]
HDAC inhibitor activity (HDAC): HDAC inhibitors

CCCC(C)C1(CC)C(=O)NC(=O)NC1=O (centres unmarked) [Pentobarbatol]
↑ HAc ? (histone acetylation): N
